Data: article PMC10522489, “Eukaryotic-like gephyrin and cognate membrane receptor coordinate corynebacterial cell division and polar elongation” (Nature Microbiology, 2023)

Biological target: Glp, endogenous (Corynebacterium glutamicum ATCC13032 (endogenous))
Assay: affinity purification with mass spectrometry; Glp interactome: Cglu and Cglu_Δglpr cross-linked with 0.25% formaldehyde; anti-Glp antibodies on magnetic beads; control Cglu_Δglp; label-free XIC quantitation, 4 replicates

B1: FtsZ, endogenous (protein, UniProt P94337 1-442)
chain: MTSPNNYLAKIKVVGVGGGGVNAVNRMIEEGLKGVEFIAVNTDSQALMFSDADVKLDIGREATRGLGAGANPEVGRASAEDHKNEIEETIKGADMVFVTAGEGGGTGTGAAPVVAGIAKKMGALTIGVVTKPFEFEGRRRTRQAEEGIAALKEVCDTLIVIPNDRLLELGDANLSIMEAFRAADEVLHNGVQGITNLITIPGVINVDFADVRSVMSEAGSALMGVGSARGDNRVVSATEQAINSPLLEATMDGATGVLLSFAGGSDLGLMEVNAAASMVRERSDEDVNLIFGTIIDDNLGDEVRVTVIATGFDAARASAAENRRAGISAAPAAEPVQQQVPTTNATLPPEKESIFGGAREENDPYLSRSAGARHRIEETRSGGGLFTTGNDRDYRRDERREDHRDERRDERRDDRSYDRRDDRRDDRRDDRGDDLDVPSFLQ
binding: binds

These are yes or no findings as the source states them, for the method shown. In cells and extracts the contact can be indirect. A yes stands for co-enrichment or nearness to the bait. Other partners may have been found.
